Where “and” joins values, the source holds several entries; their conditions need not be identical. Equal values may be shown once. This is one part of the list. These are further read-outs of the screen, such as a control signal, another cell line or another target. No call is given for them. The list favours compounds with an active or inconclusive main result. Words in brackets tell the shape of the fitted curve; partial curves, single points and poor fits give uncertain potencies.
Test: qHTS Assay to Find Inhibitors of Chronic Active B-Cell Receptor Signaling
Details: ABC-DLBCL IkBa-CBG/CBR reporter, luminescence ratio (green luciferase fused to IkBa over red control in TMD8 lymphoma cells), 4 h
Summary of the method: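 TMD8 ABC-DLBCL cells carrying doxycycline-inducible green luciferase fused to IkappaBalpha plus unfused red luciferase were exposed to compounds (up to 46 uM) for 4 hrs at 37C. Activity came from the overlap-corrected green/red luminescence ratio.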

[1] = measured here: CBR red luminescence, cell number
[2] = measured here: IkBa-CBG green luminescence

Row | Compound | AC50 [1] | AC50 [2]
1 | c1ccc(Oc2nnc(-c3cccs3)c3ccccc23)cc1 | 14.6 µM [rising, partial curve, poor fit] | 
2 | COC(=O)c1ccc(COC(=O)c2ccc(SC)cc2OC)cc1 | 23.1 µM [falling, single point] | 
3 | CS(=O)(=O)Nc1cccc(S(=O)(=O)N2CCN(C(=O)c3ccccc3)CC2)c1 | 2.51 µM [rising, partial curve, poor fit] | 
4 | CCCN(CCC)C(=O)CSc1nc2ccsc2c(=O)n1NC(=O)c1ccccc1 | 0.316 µM [rising, partial curve, poor fit] | 
5 | Cc1ccc(NC(=O)CN2C(=O)C(C)Oc3ccccc32)nc1 (stereo not given) | 35.5 µM [rising, partial curve, poor fit] | 
6 | Cc1ccc(-c2noc(-c3ccccc3C(=O)N3CCCC3)n2)cc1 | 20 µM [rising, partial curve, poor fit] | 
7 | CCCCc1ncc(CN2CCC(n3nccc3NC(=O)c3ccccc3Cl)CC2)[nH]1 | 3.16 µM [rising, full curve, poor fit] | 
8 | COc1ccccc1-n1c(-c2ccccc2)c[n+]2c1CCc1ccccc1-2 | 17.8 µM [falling, partial curve, poor fit] | 
9 | COc1cc(OC)cc(OCC(O)Cn2ccnc2)c1 (stereo not given) | 0.708 µM [falling, full curve, poor fit] | 
10 | Cc1[nH]c(=O)[nH]c(=O)c1Cc1cccc2ccccc12 | 20 µM [rising, partial curve, poor fit] | 
11 | CC(C)Oc1ccccc1C1NC(=O)CCC1[N+](=O)[O-] (stereo not given) | 35.5 µM [falling, single point] | 
12 | CN(CC(=O)Nc1ccc(F)cc1)C(=O)COc1ccccc1Cc1ccccc1 | 20.6 µM [falling, partial curve, poor fit] | 
13 | CCOc1ccc2ccccc2c1/C=N/NC(=O)CNC(=O)c1ccccc1O | 7.08 µM [falling, full curve, poor fit] | 
14 | O=C(O)c1cccc(S(=O)(=O)Nc2ccc([N+](=O)[O-])cc2O)c1 | 35.5 µM [rising, single point] | 
15 | O=C(CCCCCNC(=O)c1ccccc1)N/N=C/c1ccccc1O | 29.1 µM [rising, single point] | 
16 | Cc1ccc(S(=O)(=O)N(CCO)Cc2cc3ccc(C)c(C)c3[nH]c2=O)cc1 | 6.31 µM [rising, full curve] | 
17 | CS(=O)(=O)Nc1ccc(C(=O)NCCc2ccccc2)cc1 | 3.66 µM [rising, single point] | 
18 | CCC1(c2ccc(Cl)cc2)NC(=S)N(c2ccccc2)N1 (stereo not given) | 23.1 µM [falling, single point] | 
19 | COc1ccccc1CNC(=O)CN1C(=O)c2cccc(N)c2C1=O | 20 µM [falling, partial curve, poor fit] | 
20 | CC(C)c1cccc(C(C)C)c1OCCCCN1CCCC1 | 6.51 µM [falling, single point] | 
21 | O=C(c1ccc(Cl)cc1)C1CCCN(Cc2ccc(Oc3ncccn3)cc2)C1 (stereo not given) | 12.6 µM [falling, partial curve, poor fit] | 

Row | Compound | AC50 [1] | AC50 [2]
22 | CC(C)N(C(=O)[C@H]1C[C@H](CC(=O)NC(C)(C)C)C(=O)N2CCc3c([nH]c4cc(-c5ccco5)ccc34)[C@]12C)C(C)C | 23.1 µM [falling, single point] | 
23 | CC1(C)CC(=O)C=C(NNC(=O)c2ccccc2O)C1 | 7.94 µM [falling, partial curve, poor fit] | 
24 | COc1ccc(OC)c(S(=O)(=O)N2CCC(C(=O)Nc3ccc(C)c(C)c3)CC2)c1 | 0.891 µM [falling, partial curve, poor fit] | 
25 | Cn1c(-c2c(N)n(CCc3ccccc3)c3nc4ccccc4nc23)nc2ccccc21 | 20.6 µM [falling, single point] | 
26 | Fc1ccccc1/C=N/Nc1ccc(Cl)nn1 | 0.794 µM [rising, partial curve, poor fit] | 
27 | CN(CCC1CCOCC1)Cc1nc(Cc2ccccc2F)no1 | 35.5 µM [rising, single point] | 
28 | COc1ccc(/C=C2\OC(=O)c3c(OC)cccc32)cc1OC | 0.794 µM [rising, full curve] | 
29 | CCC(C)(C(=O)NC1CCCCC1)N(Cc1cccs1)C(=O)CC1NC(=O)NC1=O (stereo not given) | 23.1 µM [falling, single point] | 20.6 µM [rising, partial curve, poor fit]
30 | CC(=O)c1ccc(-c2ccc(C(=O)N3CCC(C(N)=O)CC3)o2)cc1 | 14.6 µM [rising, single point] | 
31 | CCOc1ccc(CNn2nnnc2N)cc1 | 7.31 µM [rising, single point] | 
32 | Cc1cc(C)n(-c2nc(NCc3cccnc3)c3c4c(sc3n2)COC(C)(C)C4)n1 | 35.5 µM [falling, single point] | 
33 | CCOc1ccc(CCNC(=O)COC(=O)c2ccc(F)c(S(=O)(=O)N3CCOCC3)c2)cc1OCC | 0.103 µM [rising, full curve, poor fit] | 
34 | COc1cc(NC(=O)C2CCCN(c3ncccn3)C2)cc(OC)c1 (stereo not given) | 2.31 µM [falling, partial curve, poor fit] | 
35 | Cc1ccc(NC(=O)CNCc2ccccc2)cc1Br | 31.6 µM [falling, single point] | 
36 | C/C(=N/OCO/N=C(\C)c1ccccc1)c1ccccc1 | 20.6 µM [rising, single point] | 
37 | COC(=O)Cc1[nH]c(=S)[nH]c1C(=O)OC | 2.51 µM [rising, full curve, poor fit] | 
38 | O=c1c2ccccc2nc(SCc2ccccc2)n1Cc1ccco1 | 6.31 µM [falling, partial curve, poor fit] | 
39 | CC1CCN(CCCCOc2ccccc2-c2ccccc2)CC1 | 20.6 µM [falling, single point] | 
40 | COc1ccc(NC(C)=O)cc1NC(C)C(=O)Nc1ccc(F)cc1 (stereo not given) | 29.1 µM [falling, single point] | 
41 | Cc1ccc(Cl)cc1NC(=O)CN1C=NS(=O)(=O)c2ccccc21 | 35.5 µM [falling, single point] | 
42 | COc1cc(OC)c(OC)cc1/C=C1\Oc2cc(OS(C)(=O)=O)ccc2C1=O | 5.62 µM [rising, partial curve, poor fit] | 

Row | Compound | AC50 [1] | AC50 [2]
43 | Cc1nc(-c2ccc(C(=O)Nc3cc(S(N)(=O)=O)ccc3C)cc2)cs1 | 8.91 µM [falling, partial curve] | 
44 | COc1ccc(C(=O)/C=C/Nc2ccc(S(=O)(=O)Nc3nc(C)cc(C)n3)cc2)cc1OC | 7.31 µM [rising, partial curve, poor fit] | 
45 | COc1ccc(/C=C/C(=O)C23CC4CC(CC(C4)C2)C3)cc1CN1CCOCC1 | 35.5 µM [falling, single point] | 
46 | COc1ccc(COC(=O)c2ccc(Cl)c(S(=O)(=O)N3CCOCC3)c2)cc1F | 0.126 µM [rising, full curve, poor fit] | 
47 | Cc1ccccc1C(=O)Oc1cccc2c(O)cccc12 | 15.8 µM [rising, single point] | 
48 | COc1ccc(NC(=O)CSc2nc(C3CC3)nc3ccccc23)c(OC)c1 | 22.4 µM [falling, single point] | 
49 | O=C(Nc1ccc(Cl)c(S(=O)(=O)N2CCOCC2)c1)c1cc2ccccc2oc1=O | 0.82 µM [falling, partial curve, poor fit] | 
50 | c1ccc(CNc2ncnc3ccccc23)cc1 | 11.2 µM [falling, partial curve, poor fit] and 7.08 µM [falling, full curve, poor fit] | 
51 | O=C(NC(=S)Nc1ccccc1C(=O)O)c1ccc2ccccc2c1 | 7.94 µM [falling, partial curve] | 
52 | N=c1n(Cc2ccccc2)c2ccccc2n1CC(O)COc1ccccc1 (stereo not given) | 11.2 µM [falling, partial curve] | 
53 | COc1ccc(C(=O)COc2cccc(NC(=O)c3ccco3)c2)cc1 | 25.9 µM [falling, single point] | 
54 | O=C(NCCO)Nc1ccc2nc(-c3ccco3)c(-c3ccco3)nc2c1 | 35.5 µM [falling, single point] | 17.8 µM [rising, partial curve, poor fit]
55 | COc1ccccc1NC(=O)Cn1nnc(C(=O)NCc2cccs2)c1N | 10 µM [rising, partial curve] | 5.62 µM [falling, partial curve]
56 | O=C1COc2ccc(S(=O)(=O)NCc3ccc(Cl)cc3)cc2N1 | 35.5 µM [falling, partial curve, poor fit] | 
57 | COc1cccc(C(=O)Nc2ccc(C3CC3(Cl)Cl)cc2)c1 (stereo not given) | 11.2 µM [falling, partial curve, poor fit] | 
58 | Cc1nc(SCC(=O)NC2(C#N)CCCC2)n(CC(C)C)c1C | 16.4 µM [rising, partial curve, poor fit] | 
59 | Cc1ccc2cc3cc(C(=O)NCCC(C)C)oc3nc2c1 | 0.355 µM [rising, partial curve, poor fit] | 
60 | Cc1ccc(C)c(-n2cc(CN3CCCN(C=O)CC3)c(-c3ccccc3)n2)c1 | 6.31 µM [falling, single point] | 
61 | COc1cc(NC(=O)c2cc(-c3cccc(O)c3)on2)cc(OC)c1OC |  | 11.2 µM [falling, partial curve, poor fit]
62 | Cc1ccc(-c2noc(CCCC(=O)NCC3CCCO3)n2)cc1 (stereo not given) | 35.5 µM [rising, single point] | 

A different layout for part of the listing above:
Row,Compound,AC50 [1],AC50 [2]
44,COc1ccc(C(=O)/C=C/Nc2ccc(S(=O)(=O)Nc3nc(C)cc(C)n3)cc2)cc1OC,"7.31 µM [rising, partial curve, poor fit]",
46,COc1ccc(COC(=O)c2ccc(Cl)c(S(=O)(=O)N3CCOCC3)c2)cc1F,"0.126 µM [rising, full curve, poor fit]",
47,Cc1ccccc1C(=O)Oc1cccc2c(O)cccc12,"15.8 µM [rising, single point]",
49,O=C(Nc1ccc(Cl)c(S(=O)(=O)N2CCOCC2)c1)c1cc2ccccc2oc1=O,"0.82 µM [falling, partial curve, poor fit]",
56,O=C1COc2ccc(S(=O)(=O)NCc3ccc(Cl)cc3)cc2N1,"35.5 µM [falling, partial curve, poor fit]",

Reference: PubChem BioAssay AID493014 (National Center for Advancing Translational Sciences (NCATS), 2011)
